{
  "source": "the supplement of paper PMC8728848",
  "binders": {"B1": {"name": "Epa11 (Candida glabrata) (protein)", "chain": "MGSSHHHHHHSSGLVPRGSHMASSNAPNYPVGCSPSVGTQLTPGLSLEVYAYPMDGNNGYCWNATYKDPEFPRSGYLKNKLLGKADGVVGPLNFLAKNKDCSPKVDTLPAGFNFPQPITVTNFTMVLFGYLAPKQSGKYTFKLLADDLLLLNLGATNAFDCCNREATKNNLGEFLAYNLWPNQDKNVTVYLEKGVYYPLRLFFNNRDGGSQLDFSYYFNDSPAPLTDFSGMFFSVPDGAECPARI"}},
  "assay_in_all_cases": "glycan array binding signal (z-score within array); higher = stronger binding",
  "details_in_all_cases": "glycan notation: IUPAC condensed, linker removed",
  "key": {"[1]": {"molecular_target": "GlcNAc(b1-3)GalNAc", "in_short": "(§1)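 The Consortium for Functional Glycomics database supplied 3228 glycan arrays, of which those lacking an available protein sequence were dropped. The binding signal, a within-array Z-score, was averaged across arrays of the same protein sequence and across linkers. Negative scores can be read as non-binding.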"}, "[2]": {"molecular_target": "GlcNAc(b1-3)Man", "in_short": "as §1"}, "[3]": {"molecular_target": "GlcNAc(b1-3)[GlcNAc(b1-4)][GlcNAc(b1-6)]GlcNAc", "in_short": "as §1"}, "[4]": {"molecular_target": "GlcNAc(b1-3)[GlcNAc(b1-6)]Gal(b1-4)GlcNAc", "in_short": "as §1"}, "[5]": {"molecular_target": "GlcNAc(b1-3)[GlcNAc(b1-6)]GalNAc", "in_short": "as §1"}, "[6]": {"molecular_target": "GlcNAc(b1-4)Gal(b1-4)GlcNAc", "in_short": "as §1"}, "[7]": {"molecular_target": "GlcNAc(b1-4)GlcNAc", "in_short": "as §1"}, "[8]": {"molecular_target": "GlcNAc(b1-4)GlcNAc(b1-4)GlcNAc", "in_short": "as §1"}, "[9]": {"molecular_target": "GlcNAc(b1-4)GlcNAc(b1-4)GlcNAc(b1-4)GlcNAc(b1-4)GlcNAc", "in_short": "as §1"}, "[10]": {"molecular_target": "GlcNAc(b1-4)GlcNAc(b1-4)GlcNAc(b1-4)GlcNAc(b1-4)GlcNAc(b1-4)GlcNAc", "in_short": "as §1"}, "[11]": {"molecular_target": "GlcNAc(b1-4)[GlcNAc(b1-6)]GalNAc", "in_short": "as §1"}, "[12]": {"molecular_target": "GlcNAc(b1-6)Gal(b1-4)GlcNAc", "in_short": "as §1"}, "[13]": {"molecular_target": "GlcNAc(b1-6)GalNAc", "in_short": "as §1"}, "[14]": {"molecular_target": "GlcNAc6S(b1-3)Gal(b1-4)GlcNAc", "in_short": "as §1"}, "[15]": {"molecular_target": "Kdn(a2-3)Gal(b1-3)GalNAc", "in_short": "as §1"}, "[16]": {"molecular_target": "Kdn(a2-3)Gal(b1-3)GlcNAc", "in_short": "as §1"}, "[17]": {"molecular_target": "Kdn(a2-3)Gal(b1-4)Glc", "in_short": "as §1"}, "[18]": {"molecular_target": "Kdn(a2-3)Gal(b1-4)GlcNAc", "in_short": "as §1"}, "[19]": {"molecular_target": "Kdn(a2-3)Gal(b1-4)[Fuc(a1-3)]GlcNAc", "in_short": "as §1"}, "[20]": {"molecular_target": "Kdn(a2-6)Gal(b1-4)GlcNAc", "in_short": "as §1"}, "[21]": {"molecular_target": "Man(a1-2)Man(a1-2)Man(a1-3)Man", "in_short": "as §1"}, "[22]": {"molecular_target": "Man(a1-2)Man(a1-2)Man(a1-6)[Man(a1-3)]Man", "in_short": "as §1"}, "[23]": {"molecular_target": "Man(a1-2)Man(a1-3)Man", "in_short": "as §1"}, "[24]": {"molecular_target": "Man(a1-2)Man(a1-3)[Man(a1-2)Man(a1-6)]Man", "in_short": "as §1"}, "[25]": {"molecular_target": "Man(a1-2)Man(a1-3)[Man(a1-2)Man(a1-6)]Man(a1-6)[Man(a1-2)Man(a1-2)Man(a1-3)]Man", "in_short": "as §1"}, "[26]": {"molecular_target": "Man(a1-2)Man(a1-3)[Man(a1-2)Man(a1-6)]Man(a1-6)[Man(a1-2)Man(a1-2)Man(a1-3)]Man(b1-4)GlcNAc(b1-4)GlcNAc", "in_short": "as §1"}, "[27]": {"molecular_target": "Man(a1-2)Man(a1-3)[Man(a1-6)]Man(a1-6)[Man(a1-2)Man(a1-3)]Man(b1-4)GlcNAc(b1-4)GlcNAc", "in_short": "as §1"}, "[28]": {"molecular_target": "Man(a1-2)Man(a1-6)[Man(a1-3)]Man(a1-6)[Man(a1-2)Man(a1-2)Man(a1-3)]Man", "in_short": "as §1"}, "[29]": {"molecular_target": "Man(a1-2)Man(a1-6)[Man(a1-3)]Man(a1-6)[Man(a1-2)Man(a1-2)Man(a1-3)]Man(b1-4)GlcNAc(b1-4)GlcNAc", "in_short": "as §1"}, "[30]": {"molecular_target": "Man(a1-3)[Man(a1-6)]Man", "in_short": "as §1"}, "[31]": {"molecular_target": "Man(a1-3)[Man(a1-6)]Man(a1-6)[Man(a1-2)Man(a1-3)]Man(b1-4)GlcNAc(b1-4)GlcNAc", "in_short": "as §1"}, "[32]": {"molecular_target": "Man(a1-3)[Man(a1-6)]Man(a1-6)[Man(a1-3)]Man", "in_short": "as §1"}, "[33]": {"molecular_target": "Man(a1-3)[Man(a1-6)]Man(a1-6)[Man(a1-3)]Man(b1-4)GlcNAc(b1-4)GlcNAc", "in_short": "as §1"}, "[34]": {"molecular_target": "Man(a1-3)[Man(a1-6)]Man(b1-4)GlcNAc(b1-4)GlcNAc", "in_short": "as §1"}, "[35]": {"molecular_target": "Man(a1-3)[Man(a1-6)]Man(b1-4)GlcNAc(b1-4)[Fuc(a1-6)]GlcNAc", "in_short": "as §1"}, "[36]": {"molecular_target": "Man(a1-6)Man", "in_short": "as §1"}, "[37]": {"molecular_target": "Man(b1-4)GlcNAc", "in_short": "as §1"}, "[38]": {"molecular_target": "MurNAc(b1-4)GlcNAc", "in_short": "as §1"}},
  "note": "This is one part of the list.",
  "data": [
    {"binder": "B1", "values": [
      {"measurement": "glycan array binding signal (z-score)", "setting": "[1]", "value": -0.639},
      {"measurement": "glycan array binding signal (z-score)", "setting": "[2]", "value": -0.145},
      {"measurement": "glycan array binding signal (z-score)", "setting": "[3]", "value": -0.459},
      {"measurement": "glycan array binding signal (z-score)", "setting": "[4]", "value": -0.471},
      {"measurement": "glycan array binding signal (z-score)", "setting": "[5]", "value": -0.583},
      {"measurement": "glycan array binding signal (z-score)", "setting": "[6]", "value": 0.216},
      {"measurement": "glycan array binding signal (z-score)", "setting": "[7]", "value": -0.29},
      {"measurement": "glycan array binding signal (z-score)", "setting": "[8]", "value": -0.206},
      {"measurement": "glycan array binding signal (z-score)", "setting": "[9]", "value": 0.06},
      {"measurement": "glycan array binding signal (z-score)", "setting": "[10]", "value": -0.001},
      {"measurement": "glycan array binding signal (z-score)", "setting": "[11]", "value": -0.058},
      {"measurement": "glycan array binding signal (z-score)", "setting": "[12]", "value": -0.299},
      {"measurement": "glycan array binding signal (z-score)", "setting": "[13]", "value": -0.586},
      {"measurement": "glycan array binding signal (z-score)", "setting": "[14]", "value": 0.225},
      {"measurement": "glycan array binding signal (z-score)", "setting": "[15]", "value": 0.55},
      {"measurement": "glycan array binding signal (z-score)", "setting": "[16]", "value": 0.226},
      {"measurement": "glycan array binding signal (z-score)", "setting": "[17]", "value": 0.668},
      {"measurement": "glycan array binding signal (z-score)", "setting": "[18]", "value": -0.045},
      {"measurement": "glycan array binding signal (z-score)", "setting": "[19]", "value": 0.075},
      {"measurement": "glycan array binding signal (z-score)", "setting": "[20]", "value": -0.078},
      {"measurement": "glycan array binding signal (z-score)", "setting": "[21]", "value": -0.527},
      {"measurement": "glycan array binding signal (z-score)", "setting": "[22]", "value": -0.166},
      {"measurement": "glycan array binding signal (z-score)", "setting": "[23]", "value": -0.547},
      {"measurement": "glycan array binding signal (z-score)", "setting": "[24]", "value": -0.219},
      {"measurement": "glycan array binding signal (z-score)", "setting": "[25]", "value": -0.818},
      {"measurement": "glycan array binding signal (z-score)", "setting": "[26]", "value": -0.611},
      {"measurement": "glycan array binding signal (z-score)", "setting": "[27]", "value": -0.187},
      {"measurement": "glycan array binding signal (z-score)", "setting": "[28]", "value": -0.603},
      {"measurement": "glycan array binding signal (z-score)", "setting": "[29]", "value": 0.349},
      {"measurement": "glycan array binding signal (z-score)", "setting": "[30]", "value": -0.134},
      {"measurement": "glycan array binding signal (z-score)", "setting": "[31]", "value": -0.03},
      {"measurement": "glycan array binding signal (z-score)", "setting": "[32]", "value": -0.318},
      {"measurement": "glycan array binding signal (z-score)", "setting": "[33]", "value": 0.237},
      {"measurement": "glycan array binding signal (z-score)", "setting": "[34]", "value": -0.227},
      {"measurement": "glycan array binding signal (z-score)", "setting": "[35]", "value": 5.52},
      {"measurement": "glycan array binding signal (z-score)", "setting": "[36]", "value": -0.693},
      {"measurement": "glycan array binding signal (z-score)", "setting": "[37]", "value": 0.037},
      {"measurement": "glycan array binding signal (z-score)", "setting": "[38]", "value": -0.006}
    ]}
  ]
}
